Experiment [1] concerns the target zebrafish catalytic inactive FLAG-Caspa mutant (C230A) (zebrafish). Kind of experiment: co-IP; called pull down by the paper; HEK293T cells co-transfected, lysed in 50 mM Tris-HCl, 150 mM NaCl, 1% NP40; 1 mg lysate with ANTI-FLAG M2 Affinity Gel 2 h at 4°C; blots probed for FLAG and mCherry.
The target in experiment [2] is zebrafish wild-type FLAG-Caspa (caspase a) (zebrafish). The experiment is described as above.

Results are given in words; binding and its absence hold for the method and conditions named. Binding seen in cells or lysates may run through a third protein. For some assays here: Binding calls can cover weak binding; strength is not graded here. Sequences can lack the tags named with a protein.

B1: zebrafish Caiap-mCherry (CARD- and ANK-containing Inflammasome Adaptor Protein fused to mCherry) (protein, UniProt Q5TYM7 1-744)
chain: MGSTSFTNPYAIEVIQMKRSELVSGILNPEDLLDLLIANGVLQPDIRVLVSDLTVREEKNSRMLNILISRGERACRIFFYPCLKRAEPDLYQHMRTYVGGVNEGIRDARRQLIGYLLEKDKQGLVKNSKPERIHPKSTANEPNNEPLNKQILKSESNHHDAILEAISSGDLYLLQELTKELDVNSVLSSNDTLLHHAAEYGKEAIVYFLLRQGAKLDLKDKEGRTALHRAAQRGHTAVAVALAKAGADIHATDQTSKTPLHLAAQNGHEGCVKALVHEEKKSLKNQTTVLHMAAIEDNATLAEVLLRNGALVDAQDGQRKTALHHAVRHGNEKTAAVLLKAGAQVDSRIVDAAFQLNRKSLLSLFLQHVHESMSQTEINAALFKAVQRNLDAVVAALIEHGADVNSCNELGYTPVLLAAELGNGEAFKVLVSKKAKLDERLPNQMSSLHLAVQSGSIQIAQILLHKGIDPNISGPKDQTPLHLSASHNQPAMMALLLRVGAQLNPVTQDGFTPLHLASQNGHTEAVAQLLEAKADVHAKDKQGRTALHWAAEQGEVAIIQSLLAAGAYSNASEREKKTPLHLAAAEGHTKAVSALLAGKAKVGAKDMDGCSPLHYAARNGKERAGSVLLASSKSKNVDDKNVWRRTALHLAAEHGHEALVGILLENKAKINALDNNKDTPLHCACKTGHLGTVQRLINWTNGERANLQATNNVKKNALQVAEAGDTEAHENISTLLKKKMFLVK
Consider B1, for which the binding entry in experiment [1] is reported as “no binding”; in experiment [2], “binds”.

The values are drawn from article PMC5662874.
